Data from PubChem BioAssay AID1259415 (National Center for Advancing Translational Sciences (NCATS), 2018).
Hit rate of the full screen: of about 410,000 compounds, about 18,000 (4.4%) were called active. Inconclusive results, whose numbers are uncertain, are shown with a selection of clear calls. No stated cut-off is given here; in the data, active means activity change below about -60%; inconclusive means no clear call, values can overlap the other calls; inactive means above about -39%.

Assay: qHTS Assay for inhibitors of the human cytomegalovirus (HCMV)
Conditions: HFF cells, HCMV-luciferase reporter, 72 h; at 57.5 µM; stronger effect = lower value
Summary of the method: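 HFF cells seeded 16 h at 37C, treated with compounds, infected with luciferase-reporter HCMV at MOI 1 PFU/cell; luciferase read at 72 h post infection, normalized to buffer-only and Salinomycin controls.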
On the % scale 0 is the no-effect control and ±100 the full control effect.

| SMILES | activity change, negative = inhibition |
| --- | --- |
| O=C(COC(=O)/C=C/c1ccc(F)cc1)NC(=O)NCc1ccccc1 | inconclusive: -50.1% |
| C/C(=N\Nc1ccc([N+](=O)[O-])cc1)c1ccc(-n2nncc2C)cc1 | active: -66.4% |
| CS(=O)(=O)c1ccc2c(c1)sc1nc(=O)c(/C=C3/C=CC(=O)C(O)=C3)c(N)n12 | inactive: 7.27% |
| CCOc1ccccc1NC(=O)Nc1ccc(Br)cc1C | inconclusive: -53.4% |
| COc1ccc(NS(=O)(=O)c2ccc(N3CCOCC3)c(N)c2)cc1 | active: -70.3% |
| COc1ccc(C(=O)NC(=S)Nc2ccc(NC(=O)c3ccco3)cc2)cc1[N+](=O)[O-] | inconclusive: -44.2% |
| Cc1onc(-c2ccccc2Cl)c1C(=O)Oc1ccc(Cl)cc1Cl | inconclusive: -58.1% |
| CCOc1c2ccc(C(=O)NC3CCCc4ccccc43)cc2nn1C (configuration not stated) | inconclusive: -47% |
| Cc1ccc(NC2=C(Cl)C(=O)OC2OC(C)C)c(C)c1 (configuration not stated) | inconclusive: -42.9% |
| COc1ccccc1CNS(=O)(=O)c1ccc(-n2cnnn2)c(C)c1 | inconclusive: -44.3% |
| COC(=O)CC1(C(=O)OC)Oc2ccc(Br)cc2C(=O)N1c1cc(Cl)cc(Cl)c1 (configuration not stated) | inactive: 30.5% |
| CC(C)COc1ccc(C(=S)N2CCCC2)cc1 | inconclusive: -48.6% |
| CCCc1nc(SCC(=O)N2c3ccccc3CC2C)c2c(C)c(C)sc2n1 (configuration not stated) | inconclusive: -53.5% |
| COc1ccc(-c2c(NC(=O)c3ccco3)oc3c(C)cccc3c2=O)cc1 | inactive: -1.34% |
| O=C1C(O)=CC(=C(c2ccccc2)c2ccccc2)c2ccccc21 | inconclusive: -46.3% |
| CC(=O)Nc1ccc(C#Cc2ccc(NC(C)=O)cc2)cc1 | active: -72.1% |
| CC(Oc1cccc(Cl)c1)C(=O)Nc1nc(-c2ccccn2)cs1 (configuration not stated) | active: -71.9% |
| CCOc1ccc(-n2ccnc2SCC(=O)Nc2cc(C)ccc2C)cc1 | inconclusive: -56.4% |
| Cc1ccc(NC(=S)N(CCCN(C)C)Cc2cc3cc4c(cc3[nH]c2=O)OCO4)c(C)c1 | inconclusive: -40.6% |
| CC(=O)c1ccc(NC(=O)c2ccc([N+](=O)[O-])o2)cc1 | active: -105% |
| Cn1ccc(C(=O)N/N=C/c2ccccc2[N+](=O)[O-])n1 | inactive: 72.4% |
| CCc1ccccc1Nc1nn2c(=O)c3ccc(C(=O)NCc4ccccn4)cc3nc2s1 | inconclusive: -41.5% |

| SMILES | activity change, negative = inhibition |
| --- | --- |
| O=C(CCCN1C(=O)/C(=C/c2cccc(Br)c2)SC1=S)Nc1ccccn1 | active: -101% |
| NC(=O)c1nsc(C(=O)N(CC(=O)NC2CCCCC2)Cc2ccc(F)cc2)c1N | inconclusive: -49.5% |
| Cn1c(SCC(=O)c2ccccc2)nc2cccnc21 | inconclusive: -41.3% |
| Cc1ccc(S(=O)(=O)Nc2nc3ccccc3nc2Nc2cccc(S(=O)(=O)N3CCCC3)c2)cc1 | inconclusive: -50.4% |
| CCOC1=C2[C@@H](CN(S(=O)(=O)c3ccc(C)cc3)[C@H]2c2ccccc2)[C@H]2C(=O)N(Cc3ccccc3)C(=O)[C@H]2C1 | inactive: 3.76% |
| COCCCNc1ncnc2ccc(C)cc12 | active: -62.6% |
| CC1CN(C(=O)CCC(=O)N2CCN(c3cccc(C(F)(F)F)c3)CC2)c2ccccc2O1 (configuration not stated) | inconclusive: -52.8% |
| COc1ccc(C=NCC2OCCc3ccccc32)cc1OC (configuration not stated) | inconclusive: -49.1% |
| CC(=O)C1=C(C)NC(SCC(N)=O)=C(C#N)C1C (configuration not stated) | inconclusive: -53.1% |
| CCOc1ccc(NC(=O)c2cc(SC)ccc2Cl)cc1 | inconclusive: -47.8% |
| Cc1cccc(NC(=S)N(CCN2CCOCC2)Cc2cc3cc4c(cc3[nH]c2=O)OCCO4)c1 | inconclusive: -50.9% |
| O=C(NCC1CCCO1)c1cccc(Oc2ccc([N+](=O)[O-])cc2)c1 (configuration not stated) | active: -87.9% |
| COc1cccc(-c2c(C(=O)N/N=C/c3ccc(C)o3)nnn2-c2nonc2N)c1 | inconclusive: -47.3% |
| Cc1cc(Cl)c(OCCCn2ccnc2)c(Br)c1 | inconclusive: -41.4% |
| CCC(C)n1cnc2c(c1=O)c1nc3ccccc3nc1n2Cc1ccccc1OC (configuration not stated) | inactive: -12.5% |
| COc1cc(OC)cc(-c2nnc(Nc3nc4c(F)cccc4s3)o2)c1 | inactive: -36.7% |
| CCCC(=O)Nc1sc(Cc2ccccc2)c(C)c1C(N)=O | inconclusive: -53.1% |
| COc1cc(SC#N)ccc1N=Cc1c(C)[nH]n(-c2ccc(C)c(C)c2)c1=O | active: -65% |
| COc1ccc(S(=O)(=O)NC(N)=NCCc2ccccc2)cc1 | inconclusive: -42% |
| O=C(Nc1ccc(F)cc1F)NC1CCCCCCC1 | inactive: 38.7% |
| Clc1cccc(CNc2nc(-c3cccnc3)nc3ccccc23)c1 | inconclusive: -43.2% |
| CCCC1=NN(C(=O)CCc2ccccc2O)C(O)(C(F)(F)F)C1 (configuration not stated) | inconclusive: -55% |

| SMILES | activity change, negative = inhibition |
| --- | --- |
| O=C(Nc1cc(Cl)cc(Cl)c1)c1cc(S(=O)(=O)NC2CCCC2)ccc1F | inconclusive: -51.4% |
| O=[As](O)(O)c1ccc(N=Nc2ccc(O)cc2)cc1 | active: -79.8% |
| COc1ccccc1N(C(=O)c1ccco1)C(C(=O)NC1CCCC1)c1ccc(N2CCOCC2)cc1 (configuration not stated) | inconclusive: -44.2% |
| COc1ccc(/C(N)=N/OC(=O)c2ccc(Br)o2)cc1 | inactive: 32.1% |
| COc1cc(/C=C/c2ccc3cccc(O)c3n2)cc(OC)c1OC | active: -94.4% |
| COc1cc(C(=O)OCC(=O)c2c[nH]c3ccccc23)ccc1OCC(=O)N1CCOCC1 | active: -63.9% |
| COc1cccc(C(=O)Nc2cccc(-c3nnc(-c4ccco4)o3)c2)c1 | inconclusive: -47.1% |
| CC1CCC(NC(=O)c2ccc(CSc3nc4ccncc4n3Cc3ccc(F)cc3)cc2)CC1 (configuration not stated) | active: -93.4% |
| Cc1onc(-c2ccccc2Cl)c1C(=O)OCC(=O)N1CCCCC1 | inactive: 0% |
| CCCCCCCCN1C(=O)[C@H](CC(=O)NCc2cccc3ccccc23)C[C@@]2(C(=O)OCC)CCCC=C12 | inactive: 16.7% |
| Cc1ccc(S(=O)(=O)/N=C(/Nc2c(C)n(C)n(-c3ccccc3)c2=O)c2ccccc2)cc1 | inconclusive: -49.8% |
| COc1ccc(CNC(=O)CSc2nnc3c(n2)[nH]c2ccc(F)cc23)cc1 | active: -70.7% |
| O=C(NCCS(=O)(=O)N1CCN(c2ccccc2)CC1)C12CC3CC(CC(C3)C1)C2 | inconclusive: -44.2% |
| CC(C)(C)c1nc(SCC(=O)Nc2nc3c(s2)CCCC3)c2ccccc2n1 | active: -61.3% |
| CCc1ccc(NC(=O)c2cc(S(=O)(=O)NC3CCCCCC3)ccc2F)cc1 | inactive: -39.6% |
| Cc1nn(-c2ccccc2)c2c1N(CC(=O)N1CCN(c3ccc(Cl)cc3)CC1)C(=O)CS2 | inactive: -10.8% |
| N#Cc1c(-n2cccc2/C=N/O)sc2c1CCCC2 | inconclusive: -58.2% |
| Cc1cccc(N/C(N)=N/c2nc(C)c(Cc3ccccc3)c(=O)[nH]2)c1 | inconclusive: -55.5% |
| COc1ccc(CC(=O)NNC(=O)CSc2ccc(C)cc2)cc1 | inconclusive: -47.2% |
| Cc1ccsc1CN(C)CC(=O)NCC(=O)Nc1ccc(F)c(F)c1F | inconclusive: -55.7% |
| Oc1ccc(N2CCN(c3ncnc4sc5c(c34)CCC5)CC2)cc1 | active: -82.4% |
| COCCn1c(SCC(=O)Nc2cc(C)on2)nnc1-c1ccccc1 | inconclusive: -43.5% |

| SMILES | activity change, negative = inhibition |
| --- | --- |
| CCn1cc(/C=C/C(=O)Nc2c(C)nn(Cc3ccccc3C)c2C)cn1 | inconclusive: -43.5% |
| Cc1cc(NC(=O)CCC(=O)N(c2cccc(F)c2)C(C(=O)NC2CCCC2)c2ccccc2)no1 (configuration not stated) | inactive: -19.2% |
| S=C(Nc1ccccn1)c1ccccn1 | active: -81.9% |
| Cc1ccc2c(C)nc(Nc3nc(CSc4nnnn4-c4ccccc4)cc(=O)[nH]3)nc2c1 | active: -101% |
| COc1cc(OC)c(OC)cc1/C=C/c1ccnc2ccccc12 | inconclusive: -50.2% |
| CCN1CCN(c2ccc(NC(=O)c3ccc4c(c3)[nH]c(=O)n4Cc3ccc(F)cc3)cc2)CC1 | inconclusive: -45.4% |
| CCCNCC1C(Oc2ccc(Cl)cc2Cl)C(=O)N1c1cccc(C)c1C (configuration not stated) | active: -90.3% |
| CCOc1ccc(NS(=O)(=O)c2ccc3c(c2)CCN3C(=O)C2CCC2)cc1 | inconclusive: -51.3% |
| CC(=O)Cn1ncc(Br)c(Br)c1=O | active: -105% |
| Cc1cccc(NC(=O)c2ccc(C(=O)c3ccccc3)cc2)n1 | inactive: 16.6% |
| C=CCn1c(O)c(N=NC(=S)Nc2ccc(OC)cc2)c2ccccc21 | active: -71.6% |
| Cc1ccc2c(c1)cc(CN(Cc1ccc3c(c1)OCO3)C(=O)c1ccccc1)c1nnnn12 | inconclusive: -43.9% |
| O=C(NCc1ccccc1CN1CCCC1)C1CCN(S(=O)(=O)c2ccc(F)c(F)c2)CC1 | active: -101% |
| O=C(C1=C(O)C(=O)N(CCN2CCOCC2)C1c1ccc(F)cc1)c1cccs1 (configuration not stated) | inconclusive: -54.3% |
| C=CCSc1ncc(-c2ccccc2)cn1 | inconclusive: -42.2% |
| CCOC(=O)Nc1cccc2ccccc12 | inconclusive: -49.3% |
| O=c1cc(CO)oc(CN2CCN(CCO)CC2)c1O | inconclusive: -58.8% |
| Cc1ccc(C)c(NC(=O)Cc2nc(CCl)cs2)c1 | inconclusive: -51.9% |
| CCOC(=O)N1CCC(N2Cc3cccc(C(=O)Nc4ccccc4OC)c3C2=O)CC1 | inactive: 8.54% |
| CCOC(=O)C1(Cc2cccc(OC)c2)CCN(C/C=C/c2ccc(OC)cc2)CC1 | inconclusive: -52.4% |
| CC(=O)c1c(C)[nH]c(C(=O)COc2cc(C)ccc2C(C)C)c1C | inconclusive: -49.3% |

An excerpt taken from the entries so far, as a working copy:

| SMILES | activity change, negative = inhibition |
| --- | --- |
| Cc1cccc(NC(=O)c2ccc(C(=O)c3ccccc3)cc2)n1 | inactive: 16.6% |
| C=CCn1c(O)c(N=NC(=S)Nc2ccc(OC)cc2)c2ccccc21 | active: -71.6% |
| Cc1ccc2c(c1)cc(CN(Cc1ccc3c(c1)OCO3)C(=O)c1ccccc1)c1nnnn12 | inconclusive: -43.9% |
| O=C(NCc1ccccc1CN1CCCC1)C1CCN(S(=O)(=O)c2ccc(F)c(F)c2)CC1 | active: -101% |
| O=C(C1=C(O)C(=O)N(CCN2CCOCC2)C1c1ccc(F)cc1)c1cccs1 (configuration not stated) | inconclusive: -54.3% |
| C=CCSc1ncc(-c2ccccc2)cn1 | inconclusive: -42.2% |
| CCOC(=O)Nc1cccc2ccccc12 | inconclusive: -49.3% |
